According to patent publication US11827701B2, “IL-6 binding molecules” (argenx BV, priority 2012, dated 2023):
Numbering of substitutions follows the chain as printed.

B1: 127F1 (24.06) (antibody, V domains shown)
VH: EVQLQESGPGLVKPSQTLSLTCTVSGGSITTRYYAWSWIRQPPGKGLEWIGVIDYDGDTYYSPSLKSRVSISWDTSKNQFSLKLSSVTAADTAVYYCARDPDVVTGFHYDYWGQGTLVTVSS
VL: QSVLTQPPSVSGTPGQRVTISCAGANNDIGTYAYVSWYQQLPGTAPKLLIYKVTTRASGVPDRFSGSKSGNSASLTITGLQSEDEADYYCASYRNFNNAVFGGGTHLTVL
B2: 129E11 (24.06) (antibody, V domains shown)
VH: B1 VH with T31S, I50M, S70T, W73V, A90E
VL: B1 VL with V3A, S9L, T13S, R17T, S72T, T78S, G103T, H106K
B3: 128G3 (24.06) (antibody, V domains shown)
VH: B1 VH with V69T, S70T, W73V, A89P, A90E, L117M
VL: B1 VL with V3A, T13A, R17T, S72T, T76A, T78S, S82A
B4: 127E2 (24.06) (antibody, V domains shown)
VH: B1 VH with S70T, W73V, K83Q, A90E, L117Q
VL: B1 VL with V3A, T13S, R17T, L41P, S72T, T78S, S82A
B5: 68F2 (24.06) (antibody, V domains shown)
VH: B1 VH with I50M, V69T, K83Q, A89P, A90E, L117Q
VL: QSALTQPPLVSGTPGQTVTISCAGANNDIGTYAYVSWYQQLPGTAPKLLIYKVTTRASGIPSRFSGSKSGNTASLTISGLQSEDEADYYCASYRNFNNAVFGRGTHLTVLG
B6: 126A3 (24.06) (antibody, V domains shown)
VH: B1 VH with S70T, W73V, L117M
VL: B1 VL with V3A, T13A, R17T, V60I, D62S, S72T, G103R, H106K

Experiment: Production level of IgG1 after transient expression in HEK293E cells
Conditions: production #2
Protocol: The VH and VL of the germlined versions of 68F2 were recloned in pUPE Heavy Chain and Light Chain expression vectors, respectively, for transient expression of full-length IgG1 antibodies. After transient expression in HEK293E cells, IgG1 antibodies were purified with protein A and quantified by measurement of OD280. Table 19 below summarizes the production levels of the germlined derivatives together with the levels of the 68F2 parental antibody. Potencies (in pM) were also measured in a 7TD1 based proliferation assay for each antibody.

B1 and B2 are within 1.5-fold of each other in “Production level HEK #2” value: 24 µg/mL for the first, 26 µg/mL for the second.

Compared with B3, B4 is 2.3-fold lower in “Production level HEK #2” value: 34 µg/mL for the first, 15 µg/mL for the second.

Going from B5 to B6, the “Production level HEK #2” value falls from 48 µg/mL to 28 µg/mL (1.7-fold).
